# The supplement of paper PMC12819154, “High-throughput peptide-centric local stability assay extends protein–ligand identification to membrane proteins, tissues and bacteria” (Nature Structural & Molecular Biology, 2025)
# Chains of the proteins cited; added tags and fusions are not shown. Lines headed by an entry give the natural chain unless they say otherwise; changes in a name come on top.
# UniProt Q6QNY0: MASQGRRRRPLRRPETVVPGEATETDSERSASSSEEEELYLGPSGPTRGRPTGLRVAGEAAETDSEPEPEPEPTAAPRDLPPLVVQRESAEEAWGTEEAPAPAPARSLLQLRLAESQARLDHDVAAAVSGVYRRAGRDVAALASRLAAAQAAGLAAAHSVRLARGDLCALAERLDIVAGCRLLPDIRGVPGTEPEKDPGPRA
# UniProt Q6IQ49: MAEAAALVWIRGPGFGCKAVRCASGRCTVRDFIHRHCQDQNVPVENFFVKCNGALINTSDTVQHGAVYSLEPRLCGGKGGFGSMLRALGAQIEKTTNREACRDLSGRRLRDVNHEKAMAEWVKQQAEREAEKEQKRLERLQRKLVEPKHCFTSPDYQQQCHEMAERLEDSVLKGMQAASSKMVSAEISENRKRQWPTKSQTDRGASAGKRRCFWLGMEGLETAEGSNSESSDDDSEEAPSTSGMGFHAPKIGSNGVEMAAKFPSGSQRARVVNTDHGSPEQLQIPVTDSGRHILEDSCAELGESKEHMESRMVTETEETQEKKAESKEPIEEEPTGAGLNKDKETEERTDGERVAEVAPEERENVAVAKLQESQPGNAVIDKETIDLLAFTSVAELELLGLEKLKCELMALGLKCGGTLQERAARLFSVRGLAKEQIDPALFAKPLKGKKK
# UniProt Q6NVV1, whole entry: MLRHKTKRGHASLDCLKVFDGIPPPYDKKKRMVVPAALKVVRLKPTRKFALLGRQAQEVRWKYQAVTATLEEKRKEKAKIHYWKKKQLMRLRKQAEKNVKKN
# UniProt Q6P3S1: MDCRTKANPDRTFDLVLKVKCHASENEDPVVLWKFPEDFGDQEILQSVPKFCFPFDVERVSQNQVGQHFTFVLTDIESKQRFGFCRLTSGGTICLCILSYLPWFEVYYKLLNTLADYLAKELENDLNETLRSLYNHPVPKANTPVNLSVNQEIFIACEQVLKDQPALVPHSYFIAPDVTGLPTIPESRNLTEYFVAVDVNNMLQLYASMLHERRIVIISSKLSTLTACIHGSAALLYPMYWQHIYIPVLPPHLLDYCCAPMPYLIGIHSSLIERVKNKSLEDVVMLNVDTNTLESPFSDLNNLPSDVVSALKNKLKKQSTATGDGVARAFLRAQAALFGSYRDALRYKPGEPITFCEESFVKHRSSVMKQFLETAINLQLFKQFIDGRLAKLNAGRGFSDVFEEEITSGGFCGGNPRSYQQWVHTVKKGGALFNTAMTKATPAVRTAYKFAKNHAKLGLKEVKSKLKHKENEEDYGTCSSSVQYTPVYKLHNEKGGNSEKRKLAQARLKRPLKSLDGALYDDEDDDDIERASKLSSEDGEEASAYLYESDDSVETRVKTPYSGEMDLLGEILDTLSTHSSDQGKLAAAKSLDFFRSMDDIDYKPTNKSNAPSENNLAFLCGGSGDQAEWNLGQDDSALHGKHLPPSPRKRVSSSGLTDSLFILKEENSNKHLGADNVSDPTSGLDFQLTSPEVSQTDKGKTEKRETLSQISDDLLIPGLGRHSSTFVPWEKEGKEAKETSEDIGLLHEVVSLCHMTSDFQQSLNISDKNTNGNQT
# UniProt Q6W2J9: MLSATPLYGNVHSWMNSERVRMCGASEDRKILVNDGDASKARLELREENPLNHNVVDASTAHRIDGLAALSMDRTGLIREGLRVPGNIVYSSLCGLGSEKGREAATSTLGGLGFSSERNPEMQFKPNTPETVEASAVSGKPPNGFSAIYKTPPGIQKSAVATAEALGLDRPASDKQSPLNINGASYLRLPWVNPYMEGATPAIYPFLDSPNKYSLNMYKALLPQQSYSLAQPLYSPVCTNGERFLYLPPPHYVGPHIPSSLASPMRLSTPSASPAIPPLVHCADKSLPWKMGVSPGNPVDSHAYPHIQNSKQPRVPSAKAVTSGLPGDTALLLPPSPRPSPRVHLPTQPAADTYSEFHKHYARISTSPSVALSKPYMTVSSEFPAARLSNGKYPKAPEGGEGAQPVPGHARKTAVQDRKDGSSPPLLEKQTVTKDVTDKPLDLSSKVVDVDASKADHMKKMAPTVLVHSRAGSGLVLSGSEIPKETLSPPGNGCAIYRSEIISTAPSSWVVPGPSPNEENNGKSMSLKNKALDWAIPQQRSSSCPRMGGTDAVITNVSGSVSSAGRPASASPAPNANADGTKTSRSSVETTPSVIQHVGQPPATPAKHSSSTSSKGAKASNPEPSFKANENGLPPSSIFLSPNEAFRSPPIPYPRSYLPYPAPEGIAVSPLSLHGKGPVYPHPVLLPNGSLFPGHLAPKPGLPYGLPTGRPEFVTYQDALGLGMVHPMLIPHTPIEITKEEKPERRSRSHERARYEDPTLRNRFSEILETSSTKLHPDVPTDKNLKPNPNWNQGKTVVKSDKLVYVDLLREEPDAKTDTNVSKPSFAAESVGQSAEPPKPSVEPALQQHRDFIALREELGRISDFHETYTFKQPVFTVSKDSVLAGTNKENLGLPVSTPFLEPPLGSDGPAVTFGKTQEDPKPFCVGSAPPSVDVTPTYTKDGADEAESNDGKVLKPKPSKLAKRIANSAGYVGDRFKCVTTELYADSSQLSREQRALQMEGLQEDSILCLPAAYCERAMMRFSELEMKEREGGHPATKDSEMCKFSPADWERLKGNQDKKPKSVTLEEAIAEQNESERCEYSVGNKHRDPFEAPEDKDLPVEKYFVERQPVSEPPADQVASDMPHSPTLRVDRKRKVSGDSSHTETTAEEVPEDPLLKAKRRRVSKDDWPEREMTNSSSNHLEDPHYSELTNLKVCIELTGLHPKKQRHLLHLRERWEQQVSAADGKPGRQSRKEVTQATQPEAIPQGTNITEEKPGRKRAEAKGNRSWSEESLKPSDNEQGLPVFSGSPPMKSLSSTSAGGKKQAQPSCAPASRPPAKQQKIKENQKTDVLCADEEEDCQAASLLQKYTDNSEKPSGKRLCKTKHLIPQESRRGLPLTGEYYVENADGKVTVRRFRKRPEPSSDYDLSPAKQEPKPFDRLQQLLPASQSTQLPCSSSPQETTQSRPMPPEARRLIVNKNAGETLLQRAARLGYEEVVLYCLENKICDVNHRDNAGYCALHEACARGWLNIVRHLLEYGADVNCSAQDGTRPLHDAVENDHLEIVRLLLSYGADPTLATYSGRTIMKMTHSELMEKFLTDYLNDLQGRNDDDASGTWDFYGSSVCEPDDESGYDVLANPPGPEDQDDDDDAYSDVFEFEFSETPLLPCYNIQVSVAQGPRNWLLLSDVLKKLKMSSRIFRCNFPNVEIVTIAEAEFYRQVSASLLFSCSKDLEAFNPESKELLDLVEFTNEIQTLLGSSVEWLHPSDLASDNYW
# UniProt Q6NZ67, whole entry: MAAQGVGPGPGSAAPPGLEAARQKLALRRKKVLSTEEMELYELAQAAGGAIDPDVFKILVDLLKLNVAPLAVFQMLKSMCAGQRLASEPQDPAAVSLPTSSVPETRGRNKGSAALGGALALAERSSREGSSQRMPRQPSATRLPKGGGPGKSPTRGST
# UniProt Q6PK04: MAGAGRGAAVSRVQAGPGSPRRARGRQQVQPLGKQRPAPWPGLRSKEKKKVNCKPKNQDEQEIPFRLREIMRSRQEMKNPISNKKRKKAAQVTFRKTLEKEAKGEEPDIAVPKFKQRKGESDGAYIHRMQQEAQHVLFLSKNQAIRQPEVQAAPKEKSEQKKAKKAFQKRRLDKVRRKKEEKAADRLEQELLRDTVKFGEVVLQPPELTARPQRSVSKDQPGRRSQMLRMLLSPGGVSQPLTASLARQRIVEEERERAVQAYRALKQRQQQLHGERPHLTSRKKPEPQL
# This is one part of the list. Most entries show no effect beyond the scatter of the controls.
# Compound: CN[C@@H]1C[C@H]2O[C@@](C)([C@@H]1OC)n1c3ccccc3c3c4c(c5c6ccccc6n2c5c31)C(=O)NC4 [staurosporine]
# Assay: log2 fold change of tryptic peptide abundance, ligand vs vehicle (limited proteolysis) (log2 ratio); higher = more trypsin-susceptible (destabilized)
# Conditions: ligand concentration: 20 uM; sample: K562 cleared lysate; digestion: 4 min, 22 C (HT-PELSA RT4min, Orbitrap Astral)
row,Target,log2 fold change
1,"BLOC1S3 (peptide sequence: ESAEEAWGTEEAPAPAPAR, peptide start residue: 88) (UniProt Q6QNY0)",-0.0977
2,"UniProt Q6IQ49 (peptide sequence: MVTETEETQEK, peptide start residue: 312)",-0.144
3,"UniProt Q6NVV1 (peptide sequence: YQAVTATLEEKRK, peptide start residue: 149)",0.255
4,"DENND1B (peptide sequence: FCFPFDVER, peptide start residue: 51) (UniProt Q6P3S1)",0.914
5,"BCOR (peptide sequence: DVTDKPLDLSSK, peptide start residue: 435) (UniProt Q6W2J9)",0.772
6,"MZT2B (peptide sequence: GSAALGGALALAER, peptide start residue: 111) (UniProt Q6NZ67)",-0.127
7,"CCDC137 (peptide sequence: GESDGAYIHR, peptide start residue: 119) (UniProt Q6PK04)",0.429
